Consider one substance from paper PMC13389695.

Chains of the proteins cited; added tags and fusions are not shown.
UniProt E2QYC9: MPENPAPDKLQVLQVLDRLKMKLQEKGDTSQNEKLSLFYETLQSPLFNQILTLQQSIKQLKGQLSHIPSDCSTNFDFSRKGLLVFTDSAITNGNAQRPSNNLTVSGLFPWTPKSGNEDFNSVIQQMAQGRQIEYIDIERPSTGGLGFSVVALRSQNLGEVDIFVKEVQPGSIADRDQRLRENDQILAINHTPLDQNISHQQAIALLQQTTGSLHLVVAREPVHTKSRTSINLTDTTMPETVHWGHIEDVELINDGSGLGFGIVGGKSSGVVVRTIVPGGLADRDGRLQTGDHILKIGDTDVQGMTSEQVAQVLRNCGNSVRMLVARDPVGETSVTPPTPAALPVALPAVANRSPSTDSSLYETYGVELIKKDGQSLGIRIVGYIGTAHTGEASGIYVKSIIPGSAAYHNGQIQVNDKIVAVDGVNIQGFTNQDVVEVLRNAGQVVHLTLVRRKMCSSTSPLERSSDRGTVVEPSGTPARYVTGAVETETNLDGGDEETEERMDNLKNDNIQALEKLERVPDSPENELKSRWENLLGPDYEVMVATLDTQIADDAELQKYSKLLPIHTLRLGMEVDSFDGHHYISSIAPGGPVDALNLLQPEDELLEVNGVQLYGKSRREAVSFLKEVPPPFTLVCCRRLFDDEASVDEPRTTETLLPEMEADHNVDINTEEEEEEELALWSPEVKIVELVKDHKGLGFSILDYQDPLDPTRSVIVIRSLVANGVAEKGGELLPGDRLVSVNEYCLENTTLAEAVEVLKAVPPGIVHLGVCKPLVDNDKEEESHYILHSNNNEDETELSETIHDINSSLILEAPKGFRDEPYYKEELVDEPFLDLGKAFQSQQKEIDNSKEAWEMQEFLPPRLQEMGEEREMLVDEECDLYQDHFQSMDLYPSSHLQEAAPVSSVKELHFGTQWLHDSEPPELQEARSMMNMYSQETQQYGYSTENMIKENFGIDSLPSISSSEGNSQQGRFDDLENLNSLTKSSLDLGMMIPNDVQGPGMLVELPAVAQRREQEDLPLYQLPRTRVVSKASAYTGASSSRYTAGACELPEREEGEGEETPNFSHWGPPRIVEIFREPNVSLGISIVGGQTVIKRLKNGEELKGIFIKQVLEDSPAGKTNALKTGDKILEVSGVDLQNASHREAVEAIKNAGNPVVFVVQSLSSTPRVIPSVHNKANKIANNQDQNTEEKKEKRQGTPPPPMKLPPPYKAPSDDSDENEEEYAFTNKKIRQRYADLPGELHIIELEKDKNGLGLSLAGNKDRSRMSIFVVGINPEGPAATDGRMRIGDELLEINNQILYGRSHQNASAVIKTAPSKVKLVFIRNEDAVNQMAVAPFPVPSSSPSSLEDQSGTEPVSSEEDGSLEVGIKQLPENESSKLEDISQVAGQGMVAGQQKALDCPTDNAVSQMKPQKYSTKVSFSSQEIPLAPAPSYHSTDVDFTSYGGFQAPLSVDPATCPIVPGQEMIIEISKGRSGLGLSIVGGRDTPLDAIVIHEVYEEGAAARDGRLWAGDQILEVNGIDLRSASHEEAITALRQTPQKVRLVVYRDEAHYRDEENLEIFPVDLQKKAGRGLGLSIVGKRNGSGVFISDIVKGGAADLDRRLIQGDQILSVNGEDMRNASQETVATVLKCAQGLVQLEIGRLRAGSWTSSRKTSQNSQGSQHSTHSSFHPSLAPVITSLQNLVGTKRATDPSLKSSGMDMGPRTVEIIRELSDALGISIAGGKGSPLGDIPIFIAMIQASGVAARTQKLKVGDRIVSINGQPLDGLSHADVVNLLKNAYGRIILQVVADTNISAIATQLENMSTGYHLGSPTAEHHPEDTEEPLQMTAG

In the test the target is T1, GFP tagged Homer3 (UniProt Q9NSC5).
T1 sequence: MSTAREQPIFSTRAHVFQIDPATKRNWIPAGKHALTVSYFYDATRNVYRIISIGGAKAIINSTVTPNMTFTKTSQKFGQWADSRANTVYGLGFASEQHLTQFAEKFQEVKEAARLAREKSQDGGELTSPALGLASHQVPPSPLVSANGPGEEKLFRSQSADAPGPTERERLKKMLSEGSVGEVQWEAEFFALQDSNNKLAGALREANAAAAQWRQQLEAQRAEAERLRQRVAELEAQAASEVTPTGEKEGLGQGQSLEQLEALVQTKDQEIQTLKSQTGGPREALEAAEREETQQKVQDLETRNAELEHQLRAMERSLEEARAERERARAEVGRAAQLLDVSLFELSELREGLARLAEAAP
Description: affinity purification with mass spectrometry; IP-MS of GFP tagged Homer3 stably expressed in MDCK cells.

Results are given in words; binding and its absence hold for the method and conditions named. In cells and extracts the contact can be indirect. These calls come from enrichment with a bait or labelling near it, and not all partners need be listed. Where a sequence is shown, tags or fusion partners need not be part of it.

For the substance “PATJ (endogenous, MDCK) (from UniProt E2QYC9 1-1828)”, the binding result is on record as “binds”.
